Measurements from the supplement of paper PMC8728848.
The other results are listed elsewhere or left out.

How the values were obtained:
Assay in all cases: glycan array binding signal (z-score within array); higher = stronger binding
Settings in all cases: glycan notation: IUPAC condensed, linker removed
[1] = biological target: Gal(b1-3)[Neu5Ac(b2-6)]GalNAc
Procedure, shortened: (§1)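 Columns mapping to the same glycan were averaged after glycan names were converted to IUPAC-condensed notation. The data come from 3228 arrays in the Consortium for Functional Glycomics database, limited to those with an available protein sequence. Binding is reported as a within-array Z-score averaged across arrays of one protein sequence and across linkers.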

[2] = biological target: Gal(b1-4)GalNAc(a1-3)[Fuc(a1-2)]Gal(b1-4)GlcNAc
Procedure, shortened: as §1

[3] = biological target: Gal(b1-4)GalNAc(b1-3)[Fuc(a1-2)]Gal(b1-4)GlcNAc
Procedure, shortened: as §1

Gal(b1-4)Glc = biological target: Gal(b1-4)Glc
Procedure, shortened: as §1

Gal(b1-4)Glc6S = biological target: Gal(b1-4)Glc6S
Procedure, shortened: as §1

Gal(b1-4)GlcNAc = biological target: Gal(b1-4)GlcNAc
Procedure, shortened: as §1

[4] = biological target: Gal(b1-4)GlcNAc(b1-2)Man(a1-3)[Gal(b1-4)GlcNAc(b1-2)Man(a1-6)]Man(b1-4)GlcNAc(b1-4)GlcNAc
Procedure, shortened: as §1

[5] = biological target: Gal(b1-4)GlcNAc(b1-3)Gal(b1-3)GlcNAc
Procedure, shortened: as §1

[6] = biological target: Gal(b1-4)GlcNAc(b1-3)Gal(b1-4)Glc
Procedure, shortened: as §1

[7] = biological target: Gal(b1-4)GlcNAc(b1-3)Gal(b1-4)GlcNAc
Procedure, shortened: as §1

[8] = biological target: Gal(b1-4)GlcNAc(b1-3)Gal(b1-4)GlcNAc(b1-3)Gal(b1-4)GlcNAc
Procedure, shortened: as §1

[9] = biological target: Gal(b1-4)GlcNAc(b1-3)Gal(b1-4)[Fuc(a1-3)]GlcNAc(b1-3)Gal(b1-4)[Fuc(a1-3)]GlcNAc
Procedure, shortened: as §1

[10] = biological target: Gal(b1-4)GlcNAc(b1-3)GalNAc
Procedure, shortened: as §1

[11] = biological target: Gal(b1-4)GlcNAc(b1-3)[Gal(b1-4)GlcNAc(b1-6)]GalNAc
Procedure, shortened: as §1

[12] = biological target: Gal(b1-4)GlcNAc(b1-6)Gal(b1-4)GlcNAc(b1-6)GalNAc
Procedure, shortened: as §1

[13] = biological target: Gal(b1-4)GlcNAc(b1-6)GalNAc
Procedure, shortened: as §1

[14] = biological target: Gal(b1-4)GlcNAc(b1-6)[Gal(b1-3)]GalNAc
Procedure, shortened: as §1

Gal3S(b1-3)GalNAc = biological target: Gal3S(b1-3)GalNAc
Procedure, shortened: as §1

Gal3S(b1-3)GlcNAc = biological target: Gal3S(b1-3)GlcNAc
Procedure, shortened: as §1

[15] = biological target: Gal3S(b1-3)[Fuc(a1-4)]GlcNAc
Procedure, shortened: as §1

Gal3S(b1-4)Glc = biological target: Gal3S(b1-4)Glc
Procedure, shortened: as §1

Gal3S(b1-4)Glc6S = biological target: Gal3S(b1-4)Glc6S
Procedure, shortened: as §1

Gal3S(b1-4)GlcNAc = biological target: Gal3S(b1-4)GlcNAc
Procedure, shortened: as §1

Gal3S(b1-4)GlcNAc6S = biological target: Gal3S(b1-4)GlcNAc6S
Procedure, shortened: as §1

[16] = biological target: Gal3S(b1-4)[Fuc(a1-3)]Glc
Procedure, shortened: as §1

Gal3S6S(b1-4)GlcNAc = biological target: Gal3S6S(b1-4)GlcNAc
Procedure, shortened: as §1

Gal3S6S(b1-4)GlcNAc6S = biological target: Gal3S6S(b1-4)GlcNAc6S
Procedure, shortened: as §1

Gal4S(b1-4)GlcNAc = biological target: Gal4S(b1-4)GlcNAc
Procedure, shortened: as §1

Gal4S6S(b1-4)GlcNAc = biological target: Gal4S6S(b1-4)GlcNAc
Procedure, shortened: as §1

Gal6S(b1-4)Glc = biological target: Gal6S(b1-4)Glc
Procedure, shortened: as §1

Gal6S(b1-4)Glc6S = biological target: Gal6S(b1-4)Glc6S
Procedure, shortened: as §1

Gal6S(b1-4)GlcNAc = biological target: Gal6S(b1-4)GlcNAc
Procedure, shortened: as §1

GalNAc(a1-3)Gal = biological target: GalNAc(a1-3)Gal
Procedure, shortened: as §1

GalNAc(a1-3)GalNAc = biological target: GalNAc(a1-3)GalNAc
Procedure, shortened: as §1

[17] = biological target: GalNAc(b1-3)Gal(a1-4)Gal(b1-4)GlcNAc
Procedure, shortened: as §1

GalNAc(b1-3)GalNAc = biological target: GalNAc(b1-3)GalNAc
Procedure, shortened: as §1

GalNAc(b1-4)GlcNAc = biological target: GalNAc(b1-4)GlcNAc
Procedure, shortened: as §1

Glc(a1-4)Glc = biological target: Glc(a1-4)Glc
Procedure, shortened: as §1

Glc(a1-6)Glc(a1-6)Glc = biological target: Glc(a1-6)Glc(a1-6)Glc
Procedure, shortened: as §1

Glc(b1-4)Glc = biological target: Glc(b1-4)Glc
Procedure, shortened: as §1

Glc(b1-6)Glc = biological target: Glc(b1-6)Glc
Procedure, shortened: as §1

GlcA(b1-3)Gal = biological target: GlcA(b1-3)Gal
Procedure, shortened: as §1

GlcA(b1-6)Gal = biological target: GlcA(b1-6)Gal
Procedure, shortened: as §1

[18] = biological target: GlcNAc(a1-3)Gal(b1-4)GlcNAc
Procedure, shortened: as §1

[19] = biological target: GlcNAc(a1-6)Gal(b1-4)GlcNAc
Procedure, shortened: as §1

B1: CD23 (Homo sapiens) (protein)
chain: MELQVSSGFVCNTCPEKWINFQRKCYYFGKGTKQWVHARYACDDMEGQLVSIHSPEEQDFLTKHASHTGSWIGLRNLDLKGEFIWVDGSHVDYSNWAPGEPTSRSQGEDCVMMRGSGRWNDAFCDRKLGAWVCDRLATCTPPASEGSAESMGPDSRPDPDGRLPTPSAPLHS
glycan array binding signal (z-score) [1]: -0.587 | glycan array binding signal (z-score) [2]: -0.172 | glycan array binding signal (z-score) [3]: 0.124 | glycan array binding signal (z-score) (Gal(b1-4)Glc): -0.405 | glycan array binding signal (z-score) (Gal(b1-4)Glc6S): -0.025 | glycan array binding signal (z-score) (Gal(b1-4)GlcNAc): 0.145 | glycan array binding signal (z-score) [4]: -0.225 | glycan array binding signal (z-score) [5]: -0.291 | glycan array binding signal (z-score) [6]: -0.334 | glycan array binding signal (z-score) [7]: -0.486 | glycan array binding signal (z-score) [8]: -0.282 | glycan array binding signal (z-score) [9]: 0.338 | glycan array binding signal (z-score) [10]: -0.738 | glycan array binding signal (z-score) [11]: 0.423 | glycan array binding signal (z-score) [12]: -0.714 | glycan array binding signal (z-score) [13]: -0.348 | glycan array binding signal (z-score) [14]: -0.202 | glycan array binding signal (z-score) (Gal3S(b1-3)GalNAc): -0.242 | glycan array binding signal (z-score) (Gal3S(b1-3)GlcNAc): 0.161 | glycan array binding signal (z-score) [15]: -0.092 | glycan array binding signal (z-score) (Gal3S(b1-4)Glc): -0.171 | glycan array binding signal (z-score) (Gal3S(b1-4)Glc6S): -0.033 | glycan array binding signal (z-score) (Gal3S(b1-4)GlcNAc): -0.17 | glycan array binding signal (z-score) (Gal3S(b1-4)GlcNAc6S): 0.225 | glycan array binding signal (z-score) [16]: 0.023 | glycan array binding signal (z-score) (Gal3S6S(b1-4)GlcNAc): -0.509 | glycan array binding signal (z-score) (Gal3S6S(b1-4)GlcNAc6S): 0.475 | glycan array binding signal (z-score) (Gal4S(b1-4)GlcNAc): 0.522 | glycan array binding signal (z-score) (Gal4S6S(b1-4)GlcNAc): 0.021 | glycan array binding signal (z-score) (Gal6S(b1-4)Glc): 0.073 | glycan array binding signal (z-score) (Gal6S(b1-4)Glc6S): 0.094 | glycan array binding signal (z-score) (Gal6S(b1-4)GlcNAc): 0.233 | glycan array binding signal (z-score) (GalNAc(a1-3)Gal): 0.781 | glycan array binding signal (z-score) (GalNAc(a1-3)GalNAc): -0.43 | glycan array binding signal (z-score) [17]: 0.119 | glycan array binding signal (z-score) (GalNAc(b1-3)GalNAc): -0.029 | glycan array binding signal (z-score) (GalNAc(b1-4)GlcNAc): -0.48 | glycan array binding signal (z-score) (Glc(a1-4)Glc): -0.129 | glycan array binding signal (z-score) (Glc(a1-6)Glc(a1-6)Glc): -0.606 | glycan array binding signal (z-score) (Glc(b1-4)Glc): -0.778 | glycan array binding signal (z-score) (Glc(b1-6)Glc): -0.392 | glycan array binding signal (z-score) (GlcA(b1-3)Gal): -0.353 | glycan array binding signal (z-score) (GlcA(b1-6)Gal): -0.165 | glycan array binding signal (z-score) [18]: -0.441 | glycan array binding signal (z-score) [19]: -0.329
